# Test results as given in the supplement of paper PMC7666118.
# The chains behind the UniProt entries cited, without tags or fusion partners. Where a name states a change or a piece, a line headed by the entry shows the natural chain unless it says otherwise.
# UniProt Q9NYP9: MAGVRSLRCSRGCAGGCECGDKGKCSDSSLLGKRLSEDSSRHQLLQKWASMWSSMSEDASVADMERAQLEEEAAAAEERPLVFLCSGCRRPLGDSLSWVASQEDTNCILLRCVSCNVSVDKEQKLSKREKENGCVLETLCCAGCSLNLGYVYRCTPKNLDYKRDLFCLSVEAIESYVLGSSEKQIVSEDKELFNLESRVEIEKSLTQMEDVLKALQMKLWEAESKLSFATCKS
# UniProt Q6ZN04: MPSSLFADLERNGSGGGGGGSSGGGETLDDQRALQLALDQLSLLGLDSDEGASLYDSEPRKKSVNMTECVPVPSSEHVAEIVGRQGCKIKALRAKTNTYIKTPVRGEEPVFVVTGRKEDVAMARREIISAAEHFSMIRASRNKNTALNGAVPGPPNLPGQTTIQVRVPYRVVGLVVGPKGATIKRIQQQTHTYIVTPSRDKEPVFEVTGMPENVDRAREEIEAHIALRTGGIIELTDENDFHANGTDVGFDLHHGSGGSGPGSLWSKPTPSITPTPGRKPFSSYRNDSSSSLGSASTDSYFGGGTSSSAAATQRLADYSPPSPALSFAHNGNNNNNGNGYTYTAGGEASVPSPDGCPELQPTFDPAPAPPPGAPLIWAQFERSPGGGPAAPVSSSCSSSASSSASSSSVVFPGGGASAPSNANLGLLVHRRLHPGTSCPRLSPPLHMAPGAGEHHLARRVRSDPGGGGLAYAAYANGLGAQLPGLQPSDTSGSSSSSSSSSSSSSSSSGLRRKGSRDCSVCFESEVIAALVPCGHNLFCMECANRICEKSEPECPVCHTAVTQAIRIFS
# UniProt Q9Y608: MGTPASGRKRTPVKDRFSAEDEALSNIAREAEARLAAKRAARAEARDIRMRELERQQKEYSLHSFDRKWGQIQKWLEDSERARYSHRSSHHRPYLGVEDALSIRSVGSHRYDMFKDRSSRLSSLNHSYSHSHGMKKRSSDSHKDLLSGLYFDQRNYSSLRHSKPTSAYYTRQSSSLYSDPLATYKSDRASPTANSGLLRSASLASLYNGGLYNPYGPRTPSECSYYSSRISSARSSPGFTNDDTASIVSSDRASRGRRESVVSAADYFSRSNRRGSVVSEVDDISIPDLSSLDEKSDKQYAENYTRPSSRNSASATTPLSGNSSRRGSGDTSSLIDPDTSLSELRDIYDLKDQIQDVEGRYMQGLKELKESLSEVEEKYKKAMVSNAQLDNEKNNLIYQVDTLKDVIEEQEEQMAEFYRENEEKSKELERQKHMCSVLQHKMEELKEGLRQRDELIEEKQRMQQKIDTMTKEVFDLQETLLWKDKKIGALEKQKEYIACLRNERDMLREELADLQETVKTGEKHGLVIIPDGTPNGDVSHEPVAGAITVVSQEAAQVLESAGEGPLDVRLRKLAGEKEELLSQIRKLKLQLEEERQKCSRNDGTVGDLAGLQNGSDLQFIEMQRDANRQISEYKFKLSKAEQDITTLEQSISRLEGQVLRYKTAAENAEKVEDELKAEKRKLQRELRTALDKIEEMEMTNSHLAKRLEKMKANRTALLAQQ
# UniProt O95983: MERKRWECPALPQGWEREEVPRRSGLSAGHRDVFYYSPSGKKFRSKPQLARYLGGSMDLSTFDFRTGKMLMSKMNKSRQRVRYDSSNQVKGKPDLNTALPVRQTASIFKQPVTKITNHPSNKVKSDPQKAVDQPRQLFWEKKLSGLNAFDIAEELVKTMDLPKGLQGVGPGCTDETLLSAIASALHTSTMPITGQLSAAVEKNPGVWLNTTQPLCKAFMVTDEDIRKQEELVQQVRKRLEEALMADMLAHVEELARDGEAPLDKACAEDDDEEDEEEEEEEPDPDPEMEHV
# UniProt P22033: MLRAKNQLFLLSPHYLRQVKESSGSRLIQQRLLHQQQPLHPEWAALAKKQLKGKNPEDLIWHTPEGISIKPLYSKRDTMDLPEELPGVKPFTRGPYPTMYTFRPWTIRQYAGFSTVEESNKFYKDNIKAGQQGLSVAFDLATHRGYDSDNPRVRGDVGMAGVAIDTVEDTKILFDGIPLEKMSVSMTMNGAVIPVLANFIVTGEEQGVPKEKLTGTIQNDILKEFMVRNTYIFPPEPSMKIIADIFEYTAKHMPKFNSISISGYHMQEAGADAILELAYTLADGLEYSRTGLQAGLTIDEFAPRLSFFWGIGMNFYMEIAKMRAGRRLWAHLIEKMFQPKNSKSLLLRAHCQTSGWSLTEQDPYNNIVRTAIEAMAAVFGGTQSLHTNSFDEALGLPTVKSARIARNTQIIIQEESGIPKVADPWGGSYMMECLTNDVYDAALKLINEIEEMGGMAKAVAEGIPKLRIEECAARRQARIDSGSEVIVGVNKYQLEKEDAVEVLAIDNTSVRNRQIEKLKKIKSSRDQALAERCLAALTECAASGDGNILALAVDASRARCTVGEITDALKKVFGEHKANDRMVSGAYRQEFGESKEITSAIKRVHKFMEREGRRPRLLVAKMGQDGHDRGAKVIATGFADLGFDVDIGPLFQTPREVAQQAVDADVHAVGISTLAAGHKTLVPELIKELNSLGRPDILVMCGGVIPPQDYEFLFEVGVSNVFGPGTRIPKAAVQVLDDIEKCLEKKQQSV
# UniProt O95402: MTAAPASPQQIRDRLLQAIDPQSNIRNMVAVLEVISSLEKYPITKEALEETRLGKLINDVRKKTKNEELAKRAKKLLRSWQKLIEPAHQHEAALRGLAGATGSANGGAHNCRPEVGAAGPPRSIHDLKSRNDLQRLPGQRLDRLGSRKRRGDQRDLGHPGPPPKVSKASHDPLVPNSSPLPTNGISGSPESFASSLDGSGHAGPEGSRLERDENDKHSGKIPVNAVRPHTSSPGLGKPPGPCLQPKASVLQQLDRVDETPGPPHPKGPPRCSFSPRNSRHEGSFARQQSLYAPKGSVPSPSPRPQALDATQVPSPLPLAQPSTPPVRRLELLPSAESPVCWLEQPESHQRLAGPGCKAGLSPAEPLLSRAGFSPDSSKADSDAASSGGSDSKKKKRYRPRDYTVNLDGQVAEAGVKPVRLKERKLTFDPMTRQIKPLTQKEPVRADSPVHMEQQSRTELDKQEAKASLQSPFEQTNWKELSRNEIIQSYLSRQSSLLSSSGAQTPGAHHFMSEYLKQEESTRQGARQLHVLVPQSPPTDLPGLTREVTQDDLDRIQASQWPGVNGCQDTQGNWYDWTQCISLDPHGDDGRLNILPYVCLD
# UniProt P40926: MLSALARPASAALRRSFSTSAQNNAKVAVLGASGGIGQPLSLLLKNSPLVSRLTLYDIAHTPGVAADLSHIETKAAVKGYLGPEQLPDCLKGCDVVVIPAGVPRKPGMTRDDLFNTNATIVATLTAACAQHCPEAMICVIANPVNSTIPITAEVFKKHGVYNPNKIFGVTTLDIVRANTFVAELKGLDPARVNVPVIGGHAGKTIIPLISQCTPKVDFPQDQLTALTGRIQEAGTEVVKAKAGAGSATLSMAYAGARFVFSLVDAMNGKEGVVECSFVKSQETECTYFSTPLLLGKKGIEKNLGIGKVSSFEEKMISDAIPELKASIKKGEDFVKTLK
# UniProt Q9H9A6: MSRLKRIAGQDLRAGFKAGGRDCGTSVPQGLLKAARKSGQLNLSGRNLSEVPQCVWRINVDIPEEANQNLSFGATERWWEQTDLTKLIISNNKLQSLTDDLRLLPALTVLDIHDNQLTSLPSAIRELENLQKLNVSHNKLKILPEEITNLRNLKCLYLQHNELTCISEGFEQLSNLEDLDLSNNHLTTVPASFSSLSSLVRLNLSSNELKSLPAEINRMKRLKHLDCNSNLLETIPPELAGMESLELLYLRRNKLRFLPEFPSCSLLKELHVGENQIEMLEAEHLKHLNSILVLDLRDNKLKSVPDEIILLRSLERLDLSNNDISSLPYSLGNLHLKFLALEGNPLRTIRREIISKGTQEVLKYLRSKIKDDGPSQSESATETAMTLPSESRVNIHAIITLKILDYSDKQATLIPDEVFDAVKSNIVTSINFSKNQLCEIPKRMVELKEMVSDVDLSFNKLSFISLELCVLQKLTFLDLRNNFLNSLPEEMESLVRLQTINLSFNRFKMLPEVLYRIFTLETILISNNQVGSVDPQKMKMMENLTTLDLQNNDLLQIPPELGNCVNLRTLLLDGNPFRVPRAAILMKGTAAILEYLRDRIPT
# UniProt Q9H8M7: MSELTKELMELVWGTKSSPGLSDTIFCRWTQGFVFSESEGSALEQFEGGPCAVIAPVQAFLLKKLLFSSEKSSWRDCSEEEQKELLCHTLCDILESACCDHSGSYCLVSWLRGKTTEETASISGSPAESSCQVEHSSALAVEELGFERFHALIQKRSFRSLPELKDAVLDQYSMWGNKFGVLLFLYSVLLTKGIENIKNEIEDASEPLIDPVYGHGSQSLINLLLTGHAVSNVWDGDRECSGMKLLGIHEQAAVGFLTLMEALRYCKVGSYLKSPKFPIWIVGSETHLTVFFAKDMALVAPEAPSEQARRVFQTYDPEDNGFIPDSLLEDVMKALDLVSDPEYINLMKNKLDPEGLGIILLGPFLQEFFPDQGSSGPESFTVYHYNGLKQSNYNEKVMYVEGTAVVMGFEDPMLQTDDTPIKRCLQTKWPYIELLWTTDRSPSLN
# UniProt P14649: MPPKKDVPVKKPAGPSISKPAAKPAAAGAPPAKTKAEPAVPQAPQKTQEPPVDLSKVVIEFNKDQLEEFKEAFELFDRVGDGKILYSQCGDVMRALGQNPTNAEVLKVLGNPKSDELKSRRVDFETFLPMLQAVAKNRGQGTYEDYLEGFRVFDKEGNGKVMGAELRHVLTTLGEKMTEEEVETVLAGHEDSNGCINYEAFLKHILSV
# UniProt Q9NPC7: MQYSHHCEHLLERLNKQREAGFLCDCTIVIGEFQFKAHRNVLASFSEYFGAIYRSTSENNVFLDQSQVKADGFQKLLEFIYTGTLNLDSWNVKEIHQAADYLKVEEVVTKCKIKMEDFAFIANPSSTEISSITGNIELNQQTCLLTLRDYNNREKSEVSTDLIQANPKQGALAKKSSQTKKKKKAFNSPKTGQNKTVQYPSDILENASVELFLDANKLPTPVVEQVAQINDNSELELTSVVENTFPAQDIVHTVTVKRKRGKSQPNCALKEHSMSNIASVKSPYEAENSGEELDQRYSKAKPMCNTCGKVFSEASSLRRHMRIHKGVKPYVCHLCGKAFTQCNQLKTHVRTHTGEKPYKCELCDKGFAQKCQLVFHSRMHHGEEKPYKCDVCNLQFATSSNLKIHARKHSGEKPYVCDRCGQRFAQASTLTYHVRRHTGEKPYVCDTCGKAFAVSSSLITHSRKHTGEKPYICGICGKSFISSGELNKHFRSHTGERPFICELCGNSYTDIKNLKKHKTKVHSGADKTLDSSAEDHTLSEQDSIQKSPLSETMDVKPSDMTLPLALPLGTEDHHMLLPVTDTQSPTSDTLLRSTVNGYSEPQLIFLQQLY
# UniProt Q5VVJ2: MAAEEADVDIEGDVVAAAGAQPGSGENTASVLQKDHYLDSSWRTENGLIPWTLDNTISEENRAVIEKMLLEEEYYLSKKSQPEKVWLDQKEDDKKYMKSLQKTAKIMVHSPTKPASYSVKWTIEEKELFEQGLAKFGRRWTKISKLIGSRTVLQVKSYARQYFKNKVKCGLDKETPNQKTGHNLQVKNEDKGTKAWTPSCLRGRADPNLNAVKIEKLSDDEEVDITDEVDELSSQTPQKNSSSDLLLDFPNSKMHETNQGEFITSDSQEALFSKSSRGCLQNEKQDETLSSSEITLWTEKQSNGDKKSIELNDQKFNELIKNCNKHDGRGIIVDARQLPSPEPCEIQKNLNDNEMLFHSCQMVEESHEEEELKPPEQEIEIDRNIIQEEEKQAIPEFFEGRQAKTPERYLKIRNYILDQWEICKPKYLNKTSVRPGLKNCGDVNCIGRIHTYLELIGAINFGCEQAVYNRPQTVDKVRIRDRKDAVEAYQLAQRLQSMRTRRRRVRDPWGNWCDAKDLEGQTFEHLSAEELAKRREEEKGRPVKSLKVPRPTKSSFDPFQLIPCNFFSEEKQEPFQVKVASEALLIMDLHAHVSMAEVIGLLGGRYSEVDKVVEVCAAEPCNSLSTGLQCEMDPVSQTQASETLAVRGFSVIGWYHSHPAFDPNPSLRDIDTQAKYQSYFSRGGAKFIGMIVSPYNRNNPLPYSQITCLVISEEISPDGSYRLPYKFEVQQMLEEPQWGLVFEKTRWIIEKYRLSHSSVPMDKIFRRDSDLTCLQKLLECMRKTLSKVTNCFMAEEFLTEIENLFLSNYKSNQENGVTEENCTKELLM
# UniProt Q9NPJ6: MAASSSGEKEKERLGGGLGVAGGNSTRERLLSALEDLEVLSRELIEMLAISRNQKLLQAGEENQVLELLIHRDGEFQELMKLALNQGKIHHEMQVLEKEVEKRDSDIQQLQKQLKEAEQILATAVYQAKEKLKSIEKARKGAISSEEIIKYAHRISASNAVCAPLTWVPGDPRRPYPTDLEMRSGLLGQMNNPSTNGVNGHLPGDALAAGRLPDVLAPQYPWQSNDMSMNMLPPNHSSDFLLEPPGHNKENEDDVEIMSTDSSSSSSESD
# UniProt O15116: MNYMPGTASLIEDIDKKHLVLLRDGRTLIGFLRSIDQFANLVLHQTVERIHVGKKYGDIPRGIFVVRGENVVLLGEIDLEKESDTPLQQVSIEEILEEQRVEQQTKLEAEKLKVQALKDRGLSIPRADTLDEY
# Some of the results follow.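 How the source made its calls: active = dose-dependent thermal stabilisation significant by F-test of dose-response against flat model at 10% FDR; inactive = not significant.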
# Compound: Nc1nc2c(ncn2[C@@H]2O[C@H](COP(=O)(O)OP(=O)(O)OP(=O)(O)O)[C@@H](O)[C@H]2O)c(=O)[nH]1
# Assay: dose-dependent thermal stabilisation call (2D-TPP, DLPTP, 10% FDR) (binary (1 = stabilised)); higher = stabilised by the compound
# Settings: system: Jurkat gel-filtered lysate; concentration range 1-500 µM
row,Target,dose-dependent thermal stabilisation call
1,MAN2B1 (UniProt O00754),inactive: 0
2,MIS18A (UniProt Q9NYP9),inactive: 0
3,MARS2 (UniProt Q96GW9),inactive: 0
4,MCAT (UniProt Q8IVS2),inactive: 0
5,MEX3B (UniProt Q6ZN04),inactive: 0
6,LRRFIP2 (UniProt Q9Y608),inactive: 0
7,MBD3 (UniProt O95983),inactive: 0
8,MPHOSPH9 (UniProt Q99550),inactive: 0
9,MMS19 (UniProt Q96T76),active: 1
10,MAPK3 (UniProt P27361),inactive: 0
11,MUT (UniProt P22033),active: 1
12,MEMO1 (UniProt Q9Y316),inactive: 0
13,MSRA (UniProt Q9UJ68),inactive: 0
14,MAPKAPK2 (UniProt P49137),active: 1
15,MED26 (UniProt O95402),inactive: 0
16,MTSS1L (UniProt Q765P7),inactive: 0
17,MTHFD1L (UniProt Q6UB35),inactive: 0
18,METTL26 (UniProt Q96S19),inactive: 0
19,LRPPRC (UniProt P42704),active: 1

# A second format for part of the listing above.
row	Target	dose-dependent thermal stabilisation call
12	MEMO1 (UniProt Q9Y316)	inactive: 0
17	MTHFD1L (UniProt Q6UB35)	inactive: 0

# Going on with the list:

row,Target,dose-dependent thermal stabilisation call
1,MDH2 (UniProt P40926),active: 1
2,LRRC40 (UniProt Q9H9A6),active: 1
3,MINDY3 (UniProt Q9H8M7),inactive: 0
4,MYL6B (UniProt P14649),inactive: 0
5,MINK1 (UniProt Q8N4C8),inactive: 0
6,MAN2C1 (UniProt Q9NTJ4),inactive: 0
7,MYNN (UniProt Q9NPC7),inactive: 0
8,MTHFS (UniProt P49914),active: 1
9,MYSM1 (UniProt Q5VVJ2),active: 1
10,MCMBP (UniProt Q9BTE3),active: 1
11,MED13 (UniProt Q9UHV7),inactive: 0
12,MGA (UniProt Q8IWI9),inactive: 0
13,MGEA5 (UniProt O60502),inactive: 0
14,MED4 (UniProt Q9NPJ6),inactive: 0
15,LRRC59 (UniProt Q96AG4),inactive: 0
16,LSM1 (UniProt O15116),inactive: 0
17,MKRN2 (UniProt Q9H000),inactive: 0
18,LRRC42 (UniProt Q9Y546),active: 1
